Data as given in US7186861B2 (priority 2002, dated 2007).
Some of these results come from one statement about several compounds together.

Assays:
Plasmopara viticola = assay: Activity against downy mildew of grapes caused by Plasmopara viticola (lasting effect, inoculation 7 days after spraying); format: in vivo; conditions: 250 ppm active compound; potted vines, experimental conditions as in the comparative example (lasting effect); untreated plants 90% infected
Description: The active compounds were prepared, separately or together, as a 10% emulsion in a mixture of 70% by weight of cyclohexanone, 20% by weight of Nekanil® LN (Lutensol® AP6, wetting agent with an emulsifying and dispersing action based on ethoxylated alkylphenols) and 10% by weight of Wettol® EM (nonionic emulsifier based on ethoxylated castor oil) and were appropriately diluted with water to the desired concentration.
Leaves of potted vines of the variety “Müller-Thurgau” were sprayed to runoff point with an aqueous preparation of active compound prepared from a stock solution consisting of 10% of active compound, 85% of cyclohexanone and 5% of emulsifier. In order to be able to assess the lasting effects of the substances, the plants, after the spray coating had dried on, were placed in a greenhouse for 7 days. Only then were the leaves inoculated with an aqueous suspension of zoospores of Plasmopara viticola. The vines were then initially placed in a chamber saturated with water vapor at 24° C. for 48 hours and subsequently in a greenhouse at temperatures of between 20 and 30° C. for 5 days. After this period of time, the plants were once more placed in a humid chamber for 16 hours to accelerate the eruption of sporangiphores. The extent to which the infection had developed on the undersides of the leaves was then determined visually.

Phytophthora infestans = format: in vivo; conditions: 250 ppm active compound; tomato Große Fleischtomate St. Pierre; infected the day after spraying, assessed after 6 days; untreated plants 100% infected

Compound | infection (Plasmopara viticola) | infection (Phytophthora infestans)
CC=C(C(=O)NCCc1ccc(OC)c(OC)c1)c1ccc(Cl)c(Cl)c1 [Compound I-23] | up to 15% | up to 15%
CCOc1ccc(CCNC(=O)C(=CC(C)(C)C)c2cccc(OC)c2)cc1OC [Compound I-63] | up to 15% | up to 15%
CCC=C(C(=O)NCCc1ccc(OCC)c(OC)c1)c1ccc(C)c(Cl)c1 [Compound I-37] | up to 15% | up to 15%
COc1ccc(CCNC(=O)C(=CC(C)(C)C)c2ccc(Br)cc2)cc1OC [Compound I-91] | up to 15% | up to 15%
CCOc1ccc(CCNC(=O)C(=CC(C)(C)C)c2ccc(OC(F)(F)F)cc2)cc1OC [Compound I-71] | up to 15% | up to 15%
CC=C(C(=O)NCCc1ccc(OCC)c(OC)c1)c1ccc(C(F)(F)F)cc1 [Compound I-110] | up to 15% | up to 15%
CCOc1ccc(CCNC(=O)C(=CC(C)C)c2ccc(OC)c(C)c2)cc1OC [Compound I-101] | up to 15% | up to 15%
CCC=C(C(=O)NCCc1ccc(OC)c(OC)c1)c1ccc(OC(F)(F)F)cc1 [Compound I-14] | up to 15% | up to 15%
CCC=C(C(=O)NCCc1ccc(OC)c(OC)c1)c1ccc(OCC)cc1 [Compound I-17] | up to 15% | up to 15%
CCC=C(C(=O)NCCc1ccc(OCC)c(OC)c1)c1ccc(F)c(Cl)c1 [Compound I-38] | up to 15% | up to 15%
CCC=C(C(=O)NCCc1ccc(OCC)c(OC)c1)c1ccc(OC)c(C)c1 [Compound I-35] | up to 15% | up to 15%
CCC=C(C(=O)NCCc1ccc(OCC)c(OC)c1)c1ccc(C)c(C)c1 [Compound I-34] | up to 15% | up to 15%
CCOc1ccc(CCNC(=O)C(=CC(C)C)c2ccc(C(C)(C)C)cc2)cc1OC [Compound I-95] | up to 15% | up to 15%
CC=C(C(=O)NCCc1ccc(OCC)c(OC)c1)c1ccc(OC)cc1 [Compound I-105] | up to 15% | up to 15%
CCC=C(C(=O)NCCc1ccc(OC)c(OC)c1)c1ccc(Br)c(F)c1 [Compound I-15] | up to 15% | up to 15%
COc1ccc(CCNC(=O)C(=CC(C)(C)C)c2ccccc2)cc1OC [Compound I-76] | up to 15% | up to 15%
COc1ccc(CCNC(=O)/C(=C\C(C)C)c2ccc(Cl)cc2)cc1OC [Compound I-2, (2Z)-2-(4-chlorophenyl)-N-[2-(3,4-dimethoxyphenyl)ethyl]-4-methyl-2-pentenamide] | up to 15% | up to 15%
CCOc1ccc(CCNC(=O)C(=CC(C)(C)C)c2ccc(OC)c(C)c2)cc1OC [Compound I-61] | up to 15% | up to 15%
CCC=C(C(=O)NCCc1ccc(OCC)c(OC)c1)c1ccc(C(F)(F)F)cc1 [Compound I-43] | up to 15% | up to 15%

Compound | infection (Plasmopara viticola) | infection (Phytophthora infestans)
COc1ccc(CCNC(=O)C(=CC(C)(C)C)c2ccc(Cl)c(C)c2)cc1OC [Compound I-79] | up to 15% | up to 15%
COc1cc(CCNC(=O)C(=CC(C)(C)C)c2ccc(C)c(C)c2)ccc1OC(F)F [Compound I-130] | up to 15% | up to 15%
CCOc1ccc(C(=CC(C)(C)C)C(=O)NCCc2ccc(OC)c(OC)c2)cc1 [Compound I-83] | up to 15% | up to 15%
CC=C(C(=O)NCCc1ccc(OC)c(OC)c1)c1ccc(Br)cc1 [Compound I-26] | up to 15% | up to 15%
CCOc1ccc(CCNC(=O)C(=CC(C)(C)C)c2ccc(Br)c(F)c2)cc1OC [Compound I-65] | up to 15% | up to 15%
COc1ccc(C(=CC(C)C)C(=O)NCCc2ccc(OC)c(OC)c2)cc1C [Compound I-55] | up to 15% | up to 15%
CC=C(C(=O)NCCc1ccc(OC)c(OC)c1)c1ccc(Cl)cc1 [Compound I-29] | up to 15% | up to 15%
COc1ccc(CCNC(=O)C(=CC(C)(C)C)c2ccc(F)c(Cl)c2)cc1OC [Compound I-78] | up to 15% | up to 15%
CCOc1ccc(CCNC(=O)C(=CC(C)(C)C)c2ccc(Cl)cc2)cc1OC [Compound I-3] | up to 15% | up to 15%
CCOc1ccc(CCNC(=O)C(=CC(C)C)c2ccc(F)cc2)cc1OC [Compound I-97] | up to 15% | up to 15%
CCOc1ccc(CCNC(=O)C(=CC(C)C)c2ccc(OC)cc2)cc1OC [Compound I-93] | up to 15% | up to 15%
COc1cc(CCNC(=O)C(=CC(C)C)c2ccc(Cl)c(C)c2)ccc1OC(F)F [Compound I-111] | up to 15% | up to 15%
CCC=C(C(=O)NCCc1ccc(OC)c(OC)c1)c1ccc(OC)cc1 [Compound I-20] | up to 15% | up to 15%
CC=C(C(=O)NCCc1ccc(OC)c(OC)c1)c1ccc(C)c(C)c1 [Compound I-28] | up to 15% | up to 15%
CCC=C(C(=O)NCCc1ccc(OC)c(OC)c1)c1ccc(C(F)(F)F)cc1 [Compound I-4] | up to 15% | up to 15%
CCC=C(C(=O)NCCc1ccc(OCC)c(OC)c1)c1ccc(Br)cc1 [Compound I-33] | up to 15% | up to 15%
CCOc1ccc(CCNC(=O)C(=CC(C)C)c2ccc(CC)cc2)cc1OC [Compound I-99] | up to 15% | up to 15%
CCOc1ccc(CCNC(=O)C(=CC(C)(C)C)c2ccccc2)cc1OC [Compound I-62] | up to 15% | up to 15%
CCC=C(C(=O)NCCc1ccc(OC)c(OC)c1)c1ccc(Br)cc1 [Compound I-6] | up to 15% | up to 15%

Compound | infection (Plasmopara viticola) | infection (Phytophthora infestans)
CC=C(C(=O)NCCc1ccc(OCC)c(OC)c1)c1ccc(C(C)C)cc1 [Compound I-108] | up to 15% | up to 15%
CCC=C(C(=O)NCCc1ccc(OC)c(OC)c1)c1ccc(F)c(Cl)c1 [Compound I-18] | up to 15% | up to 15%
CCOc1ccc(CCNC(=O)C(=CC(C)(C)C)c2ccc(F)cc2)cc1OC [Compound I-59] | up to 15% | up to 15%
COc1ccc(C(=CC(C)(C)C)C(=O)NCCc2ccc(OC)c(OC)c2)cc1C [Compound I-75] | up to 15% | up to 15%
CCOc1ccc(CCNC(=O)C(=CC(C)C)c2ccc(Cl)cc2)cc1OC [Compound I-21] | up to 15% | up to 15%
CCC=C(C(=O)NCCc1ccc(OC)c(OC)c1)c1ccc(C)c(Cl)c1 [Compound I-13] | up to 15% | up to 15%
COc1ccc(CCNC(=O)C(=CC(C)C)c2ccc(C(F)(F)F)cc2)cc1OC [Compound I-50] | up to 15% | up to 15%
CC=C(C(=O)NCCc1ccc(OCC)c(OC)c1)c1ccc(Cl)c(Cl)c1 [Compound I-104] | up to 15% | up to 15%
CCC=C(C(=O)NCCc1ccc(OCC)c(OC)c1)c1ccc(Br)c(F)c1 [Compound I-40] | up to 15% | up to 15%
CCC=C(C(=O)NCCc1ccc(OCC)c(OC)c1)c1ccc(Cl)cc1 [Compound I-1] | up to 15% | up to 15%
COc1ccc(CCNC(=O)C(=CC(C)(C)C)c2ccc(Cl)c(Cl)c2)cc1OC [Compound I-86] | up to 15% | up to 15%
COc1ccc(C(=CC(C)(C)C)C(=O)NCCc2ccc(OC)c(OC)c2)cc1 [Compound I-87] | up to 15% | up to 15%
COc1ccc(CCNC(=O)C(=CC(C)(C)C)c2ccc(Br)c(F)c2)cc1OC [Compound I-81] | up to 15% | up to 15%
CCOc1ccc(CCNC(=O)C(=CC(C)(C)C)c2ccc(C(C)(C)C)cc2)cc1OC [Compound I-57] | up to 15% | up to 15%
CCOc1ccc(CCNC(=O)C(=CC(C)(C)C)c2ccc(C)c(Cl)c2)cc1OC [Compound I-70] | up to 15% | up to 15%
COc1ccc(CCNC(=O)C(=CC(C)C)c2ccc(OC(F)(F)F)cc2)cc1OC [Compound I-54] | up to 15% | up to 15%
CCC=C(C(=O)NCCc1ccc(OC)c(OC)c1)c1ccc(C(C)C)cc1 [Compound I-47] | up to 15% | up to 15%
CCC=C(C(=O)NCCc1ccc(OCC)c(OC)c1)c1ccc(OC)cc1 [Compound I-31] | up to 15% | up to 15%
